Reference: PubChem BioAssay AID256 (DTP/NCI, 2004)
The list does not hold the whole screen: it gathers tests that were run many times, whatever their T/C, doses with no T/C, and many T/C values between a quarter and a half above the control. Other doses and runs of a compound stand elsewhere. T/C gives the treated animals as a percentage of the vehicle group. Some doses have a count of surviving animals in place of a T/C: the source holds a T/C of zero for them, seemingly a mark for toxic or unscored doses. Some doses without a T/C left all or most animals alive at the check, yet need not have been tolerated: survival well below the control is almost never listed, so the zero probably covers shortened survival too. Counts of survivors are from the toxicity check (mostly the fifth day) where no day follows; animals may have died later. Schedules are NCI's codes, read here as Q, the interval in days (D) or hours (H), X, the number of doses. Some entries were tested several times; the results are listed from low to high. Where survival is the endpoint, the PubChem record calls one and a half times the control and up active, and a quarter to a half above the control has no call in these data; cut-offs in other NCI protocols can differ. Some T/C values are followed by the survivors on the day toxicity was checked, most often the fifth; where none is given, no animal had died by that day.

Tested on: CD2F1 mice, L1210 leukemia ip, survival T/C
Test: NCI In Vivo Anticancer Drug Screen. Data for tumor model L1210 Leukemia (intraperitoneal) in CD2F1 (CDF1) mice
Settings: higher T/C = longer survival
Procedure, shortened: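 Tumor-bearing mice (transplanted tumor) were split into treated and vehicle control groups, and the measured endpoint of each treated group was divided by that of its vehicle controls.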

[1] = T/C endpoint: mean survival time, dose: 200.0 mg/kg/injection, schedule: Q04DX003 (ip), vehicle: saline
[2] = T/C endpoint: mean survival time, dose: 200.0 mg/kg/injection, schedule: Q04DX003 (ip), vehicle: saline with Tween-80
[3] = T/C endpoint: mean survival time, dose: 400.0 mg/kg/injection, schedule: Q04DX003 (ip), vehicle: saline with Tween-80
[4] = T/C endpoint: median survival time, dose: 400.0 mg/kg/injection, schedule: Q01DX001 (ip), vehicle: water
[5] = T/C endpoint: mean survival time, dose: 200.0 mg/kg/injection, schedule: Q01DX009 (ip), vehicle: saline with Tween-80
[6] = T/C endpoint: mean survival time, dose: 400.0 mg/kg/injection, schedule: Q01DX009 (ip), vehicle: saline with Tween-80

In the case of `CC1CC(C)(C)C(C[NH-])C1[NH-].[Cl][Pt+2][Cl]` (configuration not stated), the T/C (T/C endpoint: mean survival time, dose: 3.12 mg/kg/injection, schedule: Q04DX003 (ip), vehicle: saline) is reported as 132 % of control, the T/C (T/C endpoint: mean survival time, dose: 25.0 mg/kg/injection, schedule: Q04DX003 (ip), vehicle: saline) is reported as 129 and 137 % of control and the T/C (T/C endpoint: mean survival time, dose: 50.0 mg/kg/injection, schedule: Q04DX003 (ip), vehicle: saline) is reported as 132 % of control. For the same compound, the survivor count [1] was 4 of 6.
`CS(=O)(=O)OCCBr` was tested, and the survivor count (T/C endpoint: mean survival time, dose: 100.0 mg/kg/injection, schedule: Q04DX003 (ip), vehicle: saline) was 6 of 6 and the survivor count [1] was 0 of 6.
With `C=CCOCC(O)CNCC(O)COCC=C` (configuration not stated) the survivor count [2] was 1 of 6 and the survivor count [3] was 0 of 6.
For `CC(C)(C)N.[O]=[Cr](=[O])([OH])[OH]`, the survivor count (T/C endpoint: mean survival time, dose: 80.0 mg/kg/injection, schedule: Q01DX001 (ip), vehicle: saline) was 2 of 6.
For `CCOC(=O)Cc1nc2ccccc2[nH]1`, the survivor count [3] was 3 of 3.
With `COC1=C(N=[N+]=[N-])C(=O)C(OC)=C(N=[N+]=[N-])C1=O` the survivor count (T/C endpoint: mean survival time, dose: 100.0 mg/kg/injection, schedule: Q04DX003 (ip), vehicle: saline with Tween-80) was 0 of 6, the survivor count [2] was 0 of 6 and the survivor count [3] was 0 of 6.
With `N#CSc1ccc2c(ccn2C2OCC(O)C(O)C2O)c1` (configuration not stated) the survivor count (T/C endpoint: mean survival time, dose: 100.0 mg/kg/injection, schedule: Q01DX005 (ip), vehicle: other) was 1 of 3 and the survivor count (T/C endpoint: mean survival time, dose: 200.0 mg/kg/injection, schedule: Q01DX005 (ip), vehicle: other) was 0 of 3.
With `O=NN(CCCl)C(=O)/N=N/C(=O)N(CCCl)N=O` the T/C (T/C endpoint: median survival time, dose: 200.0 mg/kg/injection, schedule: Q01DX001 (ip), vehicle: water) was 126 and 131 % of control [5 of 6 alive], the T/C [4] was 144 % of control [4 of 6 alive] and the survivor count [4] was 1 of 6.
`O=[N+]([O-])c1ccc(S(=O)(=O)Cl)c(Cl)c1` was tested, and the survivor count (T/C endpoint: mean survival time, dose: 100.0 mg/kg/injection, schedule: Q01DX009 (ip), vehicle: saline with Tween-80) was 3 of 6, the survivor count [5] was 2 of 6 and the survivor count [6] was 0 of 6.
For `COc1cc2c(c(OC)c1OC)-c1ccc(SC)c(=O)cc1[C@@H](NC(=O)CCl)CC2`, the survivor count (T/C endpoint: mean survival time, dose: 1.6 mg/kg/injection, schedule: Q01DX009 (ip), vehicle: water) was 2 of 6 and the survivor count (T/C endpoint: mean survival time, dose: 3.2 mg/kg/injection, schedule: Q01DX009 (ip), vehicle: water) was 0 of 6.
With `C#CC(O)C(CC)CCCC` (configuration not stated) the survivor count [5] was 4 of 6.
For `CCCCCC(CN(C)C)C(=O)/C=C/c1ccc(Cl)c(Cl)c1` (configuration not stated), the survivor count (T/C endpoint: mean survival time, dose: 35.0 mg/kg/injection, schedule: Q01DX009 (ip), vehicle: saline) was 1 of 6, the survivor count (T/C endpoint: mean survival time, dose: 55.0 mg/kg/injection, schedule: Q01DX009 (ip), vehicle: saline) was 0 of 6 and the survivor count (T/C endpoint: mean survival time, dose: 80.0 mg/kg/injection, schedule: Q01DX009 (ip), vehicle: saline) was 0 of 6.
In the case of `CN(C)[C@@H]1C(=O)C(C(N)=O)=C(O)[C@@]2(O)C(=O)C3=C(O)c4c(O)ccc(Cl)c4[C@@](C)(O)[C@H]3C[C@@H]12`, the T/C [5] is reported as 143 % of control, the T/C (T/C endpoint: mean survival time, dose: 200.0 mg/kg/injection, schedule: Q01DX009 (ip), vehicle: saline) is reported as 140 % of control [4 of 6 alive] and the survivor count [6] is reported as 0 of 6 and 6 of 10. The survivor count (T/C endpoint: mean survival time, dose: 400.0 mg/kg/injection, schedule: Q01DX009 (ip), vehicle: saline) was 0 of 6.
With `Cc1c2cnccc2c(C)c2c1c1ccccc1n2CCNCc1ccccc1` the survivor count [3] was 6 of 6.
